PubChem BioAssay AID743121 – NCATS, 2013
Here is an unselected part of about 26,000 reagents. Over the whole deposit, 167 (0.63%) got an active call. 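Calls are per gene from RSA p-values that are not deposited; an individual active-marked siRNA can sensitise only weakly.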 Entries without a mark were called inactive. Reagents against one gene are numbered here. Not all columns of the deposit are shown. No sequences are given here.

Purpose: 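Partners whose loss is lethal together with topoisomerase I blockade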 (primary screen)
Cells: MDA-MB-231 cells, a human breast cancer line
Reagents: single siRNA against human genes, 20 nM siRNA (0.8 pmol per well)
Time to read-out: 120 h (drug added 48 h after transfection, read 72 h later)
Challenge: camptothecin 20 nM (about EC30) for 72 h; vehicle 0.1% DMSO in parallel plates
Detection: 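Cell viability by ATP luminescence (CellTiter-Glo) as % of non-targeting siRNA wells, and the log2 ratio of viability without drug over viability with camptothecin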
Reading the numbers: log2 vehicle/camptothecin viability: higher = stronger sensitisation to camptothecin
Call rule: 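Active genes have an RSA gene-level p-value below 0.001, computed from the ratios of their separate siRNAs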

How did the screen score MDGA1 (MAM domain containing glycosylphosphatidylinositol anchor 1) #1?
log2 vehicle/camptothecin viability: -0.292

What is on record for MDGA1 (MAM domain containing glycosylphosphatidylinositol anchor 1) #2?
log2 vehicle/camptothecin viability: -0.1

For MDGA1 (MAM domain containing glycosylphosphatidylinositol anchor 1) #3, how do the results read?
log2 vehicle/camptothecin viability: -0.225

With MDGA1 (MAM domain containing glycosylphosphatidylinositol anchor 1) #4, what does the deposit list?
log2 vehicle/camptothecin viability: 0.926

What is on record for BPIFB1 (BPI fold containing family B member 1) #1?
log2 vehicle/camptothecin viability: -0.329

How did the screen score BPIFB1 (BPI fold containing family B member 1) #2?
log2 vehicle/camptothecin viability: 0.223

What is on record for BPIFB1 (BPI fold containing family B member 1) #3?
log2 vehicle/camptothecin viability: -0.54

Which result is listed for BPIFB1 (BPI fold containing family B member 1) #4?
log2 vehicle/camptothecin viability: -0.173

For MMS19 (MMS19 cytosolic iron-sulfur assembly component) #1, what does the deposit list?
log2 vehicle/camptothecin viability: -0.203

With MMS19 (MMS19 cytosolic iron-sulfur assembly component) #2, how do the results read?
log2 vehicle/camptothecin viability: -0.256

What is on record for MMS19 (MMS19 cytosolic iron-sulfur assembly component) #3?
log2 vehicle/camptothecin viability: -0.267

For MMS19 (MMS19 cytosolic iron-sulfur assembly component) #4, what does the deposit list?
log2 vehicle/camptothecin viability: 0.134

With PIP5K1B (phosphatidylinositol-4-phosphate 5-kinase type 1 beta) #1, what was measured?
log2 vehicle/camptothecin viability: -0.405

For PIP5K1B (phosphatidylinositol-4-phosphate 5-kinase type 1 beta) #2, what was measured?
log2 vehicle/camptothecin viability: 0.0898

Which result is listed for PIP5K1B (phosphatidylinositol-4-phosphate 5-kinase type 1 beta) #3?
log2 vehicle/camptothecin viability: 0.595

For PIP5K1B (phosphatidylinositol-4-phosphate 5-kinase type 1 beta) #4, what was measured?
log2 vehicle/camptothecin viability: 0.199

What did the screen give for PDE1A (phosphodiesterase 1A) #1?
log2 vehicle/camptothecin viability: -0.031

Which result is listed for PDE1A (phosphodiesterase 1A) #2?
log2 vehicle/camptothecin viability: -0.102

For PDE1A (phosphodiesterase 1A) #3, what does the deposit list?
log2 vehicle/camptothecin viability: -0.543

With PDE1A (phosphodiesterase 1A) #4, what was measured?
log2 vehicle/camptothecin viability: -0.377

How did the screen score RNF113A (ring finger protein 113A) #1?
log2 vehicle/camptothecin viability: -0.00451

Which result is listed for RNF113A (ring finger protein 113A) #2?
log2 vehicle/camptothecin viability: 1.9

What did the screen give for RNF113A (ring finger protein 113A) #3?
log2 vehicle/camptothecin viability: 0.101

With RNF113A (ring finger protein 113A) #4, how do the results read?
log2 vehicle/camptothecin viability: -0.335

For SPATA20 (spermatogenesis associated 20) #1, how do the results read?
log2 vehicle/camptothecin viability: -0.215

With SPATA20 (spermatogenesis associated 20) #2, what does the deposit list?
log2 vehicle/camptothecin viability: -0.164

How did the screen score SPATA20 (spermatogenesis associated 20) #3?
log2 vehicle/camptothecin viability: -0.495

What did the screen give for SPATA20 (spermatogenesis associated 20) #4?
log2 vehicle/camptothecin viability: -0.532

What is on record for UCKL1 (uridine-cytidine kinase 1 like 1) #1?
log2 vehicle/camptothecin viability: -0.241

Which result is listed for UCKL1 (uridine-cytidine kinase 1 like 1) #2?
log2 vehicle/camptothecin viability: 0.872

How did the screen score UCKL1 (uridine-cytidine kinase 1 like 1) #3?
log2 vehicle/camptothecin viability: -0.291

How did the screen score UCKL1 (uridine-cytidine kinase 1 like 1) #4?
log2 vehicle/camptothecin viability: -0.133

Which result is listed for USP8 (ubiquitin specific peptidase 8) #1?
log2 vehicle/camptothecin viability: 0.114

What is on record for USP8 (ubiquitin specific peptidase 8) #2?
log2 vehicle/camptothecin viability: -0.227

With USP8 (ubiquitin specific peptidase 8) #3, how do the results read?
log2 vehicle/camptothecin viability: 0.17
